# Reference: PubChem BioAssay AID2685 (National Center for Advancing Translational Sciences (NCATS), 2010)
# Some of the results follow. Further columns of the screen follow, without active or inactive calls. Most of these compounds were active or inconclusive in the main read-out, so they are no random draw. Words in brackets tell the shape of the fitted curve; partial curves, single points and poor fits give uncertain potencies.
# Assay: qHTS Assay for Lipid Storage Modulators in Drosophila S3 Cells;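 as to cell number change: cells counted by Cell Tracker Red CMTPX staining in the red channel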
# Conditions: BODIPY lipid droplet fluorescence, 18-24 h; for cell number change: measured here: cell count max response, cells fed with added oleic acid
# How it was run: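 Laser-scanning cytometry quantifies lipid droplet accumulation (500–530 nm total intensity; droplet/cell object ratio) in oleic acid-fed (400 uM added) Drosophila S3 cells treated with a concentration series. 20 uM Triacsin C defined 100% inhibition.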
# [1] = measured here: cell number channel AC50, cells fed with added oleic acid
# [2] = measured here: lipid fluorescence (Fed channel) AC50, cells fed with added oleic acid
SMILES,cell number change [%],AC50 [1],AC50 [2]
CCOCCCNC1=C(Cl)C(=O)c2ccccc2C1=O,-42.4,"18.4 µM [falling, single point]","29.1 µM [falling, single point]"
COc1ccc(CCn2c(=S)[nH]c3cc(C(=O)NCc4ccco4)ccc3c2=O)cc1OC,-28.9,,"3.66 µM [falling, single point]"
CC(=O)c1ccc(NC(=O)Nc2cccnc2)cc1,28.6,,"29.1 µM [rising, single point]"
COc1ccccc1CNC(=O)CNC(=O)c1cn(-c2ccccc2OC)c(=O)c2ccccc12,,"6.51 µM [rising, single point]","4.11 µM [rising, single point]"
COc1cc2c(cc1OC)CN(C(=O)c1oc3ccccc3c1C)CC2,-5.71,,"29.1 µM [rising, single point]"
COc1ccc(OC)c(NC(=O)c2nc(S(=O)(=O)Cc3ccccc3)ncc2Cl)c1,10.2,"6.51 µM [falling, single point]","0.92 µM [falling, full curve]"
COc1ccc(OC)c(NC(=O)CSc2nc3ccccc3c(=O)n2CCNC(C)=O)c1,-20.9,,"18.4 µM [falling, single point]"
CCc1ccc(/C=C/c2c([N+](=O)[O-])c(=O)n(C)c(=O)n2C)cc1,-18.9,,"3.66 µM [falling, partial curve]"
O=C(O)CCCNC(=O)OCc1ccccc1,15.5,,"0.116 µM [falling, full curve, poor fit]"
CCSc1nc2ccccc2n1S(=O)(=O)c1ccccc1,1.37,,
O=C(c1ccc2[nH]ccc2c1)N1CCCC(Nc2ccccc2)C1 (stereo not drawn),-16.4,,"4.11 µM [rising, full curve, poor fit]"
COc1ccc(NS(=O)(=O)c2cc(N/C(=N\S(=O)(=O)c3ccccc3)c3ccc(F)cc3)ccc2Cl)cc1,13.3,,
CCNc1nc(NCC)n2c(SCc3ccc(F)cc3)nnc2n1,-0.583,,
Cc1ccc(C(=O)c2nc3c(n2O)CCCC3)cc1,-9.05,"4.61 µM [falling, partial curve, poor fit]",
O=C(Nc1ccc(F)cc1F)c1cc2ncc(CCCl)cn2n1,-0.792,,"0.517 µM [falling, full curve, poor fit]"
CC(C)(C)NS(=O)(=O)c1ccc(NS(C)(=O)=O)cc1,-7.61,"0.259 µM [falling, full curve, poor fit]","1.3 µM [falling, partial curve]"
COC1=CC(=Cc2c(N)n3nc(CC(=O)N4CCCCC4)sc3nc2=O)C=C(OC)C1=O,-98.9,"3.26 µM [falling, full curve]","1.84 µM [falling, full curve]"
O=C(CCCc1nc(-c2ccccc2)no1)NCc1cccnc1,-30,"9.2 µM [falling, partial curve]","10.3 µM [falling, partial curve, poor fit]"
O=C(COc1ccc(Cl)cc1)Nc1ccc(C(=O)O)cc1NC(=O)COc1ccc(Cl)cc1,26.9,,"0.00461 µM [rising, full curve, poor fit]"

SMILES,cell number change [%],AC50 [1],AC50 [2]
CC(C)C(NS(=O)(=O)c1cccc2nsnc12)C(=O)NCCC1=CCCCC1 (stereo not drawn),-30.4,"9.2 µM [falling, partial curve, poor fit]","23.1 µM [falling, partial curve, poor fit]"
CCc1nc(SCC(=O)N2CCCc3ccccc32)c2oc3ccccc3c2n1,-14.3,"6.51 µM [rising, single point]",
COc1cccc(N=C2SC(CC(=O)Nc3ccccc3)C(=O)N2Cc2ccccn2)c1 (stereo not drawn),75.6,"23.1 µM [rising, single point]",
CCCCc1cc(O)c(CCCC)c(O)c1,-39.6,"16.4 µM [falling, single point]","16.4 µM [falling, single point]"
COc1ccccc1NC(=O)CN(c1ccc([N+](=O)[O-])cc1)S(=O)(=O)c1ccccc1,19.5,,"2.91 µM [rising, partial curve, poor fit]"
Cc1ccc(C(=O)NCc2ccncc2)cc1S(=O)(=O)Nc1cccc(C)c1C,5.49,,
O=C(c1cc(Cl)nc2ccccc12)N1CCN(Cc2ccc3c(c2)OCO3)CC1,18.2,"0.184 µM [rising, full curve, poor fit]","0.206 µM [rising, full curve]"
COc1ccc(N(CC(=O)NCc2ccc(F)cc2)C(=O)c2snc(C(N)=O)c2N)cc1,2.92,,
CN(C)c1cccc(NC(=O)c2ccco2)c1,-25.4,,"14.6 µM [falling, partial curve, poor fit]"
Cn1c(=O)c2sccc2n2c(CCCC(=O)NC3CCN(Cc4ccccc4)CC3)nnc12,-4.58,,"29.1 µM [falling, single point]"
CCCS(=O)(=O)c1nc(S(=O)(=O)c2ccc(C)cc2)c(N2CCC(O)CC2)s1,-48.5,"32.6 µM [falling, single point]","23.1 µM [falling, single point]"
CCOC(=O)C1=C(COC(=O)c2cc(S(=O)(=O)N(C)C)ccc2C)NC(=O)NC1C (stereo not drawn),-0.551,"6.51 µM [rising, single point]","23.1 µM [rising, partial curve]"
O=C(NCCCn1ccnc1)c1cc(S(=O)(=O)N2CCOCC2)c(Cl)cc1Cl,6.25,,
Cn1nc(OCC(=O)O)cc1C(F)(F)F,13.5,"6.51 µM [falling, single point]","6.51 µM [falling, single point]"
OCC(CO)(CO)n1cnnn1,5.09,,
O=C(NCC1CCCO1)C1CC(c2ccccc2Cl)=NO1 (stereo not drawn),9.37,,
CCOC(=O)C1CCN(C(=O)c2ccccc2NS(=O)(=O)c2ccc(F)c(F)c2)CC1,14.7,,"2.06 µM [rising, single point]"
Cc1ccccc1NC(=O)Cc1nc(COC(=O)CSc2ccccc2)cs1,20.4,"0.103 µM [rising, full curve, poor fit]","29.1 µM [rising, single point]"
N#CC(c1ccc(Cl)nn1)c1c(F)cccc1Cl (stereo not drawn),-11.1,,

SMILES,cell number change [%],AC50 [1],AC50 [2]
CCCC1(CCC)NC(=O)NC1=O,-47.6,"29.1 µM [falling, single point]","25.9 µM [falling, single point]"
Cc1ccc(-c2nc(CSCC(=O)N3CCN(C(=O)c4ccco4)CC3)c(C)o2)cc1,-17.6,,"0.326 µM [falling, full curve]"
CC(C(=O)Nc1sc2c(c1C#N)CCCCC2)N1C(=O)c2ccccc2C1=O (stereo not drawn),1.57,,"0.517 µM [falling, full curve, poor fit]"
O=C(NCC(c1cccnc1)N1CCN(c2ccccc2F)CC1)OCc1ccccc1 (stereo not drawn),-6.24,,"0.517 µM [rising, full curve, poor fit]"
Cc1cc(=O)oc2c(C)c(OCC(=O)N3CCC(C(=O)O)CC3)ccc12,8.55,,"5.8 µM [rising, full curve, poor fit]"
COc1cc(C2c3c(-c4ccccc4O)n[nH]c3C(=O)N2Cc2ccco2)cc(OC)c1OC (stereo not drawn),-7.61,"0.651 µM [falling, single point]",
CN(c1ccccc1)S(=O)(=O)c1nnc(NC(=O)c2ccco2)s1,-24.8,"6.51 µM [falling, single point]",
NS(=O)(=O)c1ccc(NC(=O)COC(=O)CNC(=O)C23CC4CC(CC(C4)C2)C3)cc1,-24.1,,
O=C(Nc1cccc2ccccc12)N1CCN(Cc2ccc3c(c2)OCO3)CC1,,,"0.92 µM [rising, partial curve]"
O=C(CCc1ccccc1)NNC(=O)COc1ccc(Br)cc1,33,"36.6 µM [rising, partial curve, poor fit]",
Clc1ccccc1CSc1nnc(-c2cccnc2)n1Cc1ccco1,1.42,"0.517 µM [falling, full curve, poor fit]","5.8 µM [rising, full curve]"
Fc1cc(Cl)ccc1NC1=NCCCCC1,69.4,"29.1 µM [rising, single point]",
COc1cccc(-c2nnc(SCC(=O)OC(C)C)n2Cc2ccco2)c1,-17.3,,"16.4 µM [rising, single point]"
CCOC(=O)C1CCN(C(=O)c2cc(C(C)(C)C)nn2Cc2ccccc2)CC1,-19.1,,"20.6 µM [falling, single point]"
N#Cc1cccc(C#N)c1Oc1ccc(N)cc1,,"0.92 µM [rising, partial curve, poor fit]","2.59 µM [rising, partial curve]"
COc1ccc(NC(=O)C2CCCN(S(=O)(=O)c3cccs3)C2)cc1OC (stereo not drawn),103,"2.59 µM [rising, full curve]","1.46 µM [rising, partial curve]"
CC12CCC(C(=O)O)(c3nc(C#N)c(C#N)nc31)C2(C)C (stereo not drawn),-16.1,,"29.1 µM [rising, single point]"
COc1ccc(N2C(=O)CCC(C(=O)NCc3cccnc3)C2c2ccc(OC)c(OC)c2)cc1 (stereo not drawn),38.8,"16.4 µM [rising, single point]",
CCOC(=O)C1=C(C)NC(C)=C(C(=O)OCC)C1c1cccs1,-15.8,,"7.31 µM [falling, partial curve]"

# Grouped by structure: those above with a tert-butyl group.
SMILES,cell number change [%],AC50 [1],AC50 [2]
CC(C)(C)NS(=O)(=O)c1ccc(NS(C)(=O)=O)cc1,-7.61,"0.259 µM [falling, full curve, poor fit]","1.3 µM [falling, partial curve]"
CCOC(=O)C1CCN(C(=O)c2cc(C(C)(C)C)nn2Cc2ccccc2)CC1,-19.1,,"20.6 µM [falling, single point]"
